Results reported in PubChem BioAssay AID250 (DTP/NCI, 2004).
The list is a part of this screen's results and no random one: it gathers tests that were run many times, whatever their T/C, doses with no T/C, and many T/C values between a quarter and a half above the control. Other doses and runs of a compound stand elsewhere. T/C gives the treated animals as a percentage of the vehicle group. Some doses have a count of surviving animals in place of a T/C: the source files T/C as zero there, which appears to mark a toxic dose or a test without result, not a measured value. Some doses without a T/C left all or most animals alive at the check, yet need not have been tolerated: survival well below the control is almost never listed, so the zero probably covers shortened survival too. Survivors were counted at the toxicity check, usually on the fifth day, unless a day is given; later deaths do not show. Schedule codes are those of the source, read here as Q, the interval in days (D) or hours (H), X, the number of doses. For survival time, the PubChem record calls one and a half times the control and up active, and a quarter to a half above the control has no call in these data; cut-offs in other NCI protocols can differ. Some entries were tested several times; the results are listed from low to high. Brackets with × stand for listed records that agree. Some schedules carry Z or #; the key to these is not given. Some T/C values are followed by the survivors on the day toxicity was checked, most often the fifth; where none is given, no animal had died by that day.

Tested on: BDF1 mice, L1210 leukemia sc, survival T/C
Assay: NCI In Vivo Anticancer Drug Screen. Data for tumor model L1210 Leukemia (subcutaneous) in B6D2F1 (BDF1) mice
Conditions: vehicle: saline, higher T/C = longer survival
In short: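 Antitumor activity is assessed in mice with transplanted tumors by comparing the treated group (T) with the vehicle control group (C).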

**Q.** Which results are given for `O=P1(N(CCCl)CCCl)NCCCO1` (stereo not given)?
**A.** survivor count (T/C endpoint: mean survival time, dose: 400.0 mg/kg/injection, schedule: Q01DX001 (ip)): 6 of 6; survivor count (T/C endpoint: mean survival time, dose: 1120.0 mg/kg/injection, schedule: Q01DX001 (ip)): 6 of 6; T/C (T/C endpoint: median survival time, dose: 14.0 mg/kg/injection, schedule: Q01DX Z (sc), run until all animals had died): 100, 116, 200 % of control; T/C (T/C endpoint: median survival time, dose: 23.0 mg/kg/injection, schedule: Q01DX Z (sc), evaluated on day 34): 256 % of control; T/C (T/C endpoint: median survival time, dose: 23.0 mg/kg/injection, schedule: Q01DX Z (sc), evaluated on day 36): 178 % of control; T/C (T/C endpoint: median survival time, dose: 23.0 mg/kg/injection, schedule: Q01DX Z (sc), evaluated on day 40): 210 % of control; T/C (T/C endpoint: median survival time, dose: 23.0 mg/kg/injection, schedule: Q01DX Z (sc), evaluated on day 60): 181 % of control; T/C (T/C endpoint: median survival time, dose: 23.0 mg/kg/injection, schedule: Q01DX Z (sc), run until all animals had died): 160, 166 [9 of 10 alive], 210, 238, 294 % of control; T/C (T/C endpoint: median survival time, dose: 39.0 mg/kg/injection, schedule: Q01DX Z (sc), evaluated on day 34): 275 and 300 % of control; T/C (T/C endpoint: median survival time, dose: 39.0 mg/kg/injection, schedule: Q01DX Z (sc), evaluated on day 36): 221 % of control; T/C (T/C endpoint: median survival time, dose: 39.0 mg/kg/injection, schedule: Q01DX Z (sc), evaluated on day 40): 270 % of control; T/C (T/C endpoint: median survival time, dose: 39.0 mg/kg/injection, schedule: Q01DX Z (sc), evaluated on day 60): 245 % of control; T/C (T/C endpoint: median survival time, dose: 39.0 mg/kg/injection, schedule: Q01DX Z (sc), run until all animals had died): 272 [8 of 10 alive], 275, 300, 320, 365, 388 % of control; survivor count (T/C endpoint: median survival time, dose: 39.0 mg/kg/injection, schedule: Q08DX003 (ip)): 7 of 8; survivor count (T/C endpoint: median survival time, dose: 50.0 mg/kg/injection, schedule: Q01DX001 (ip)): 5 of 8; T/C (T/C endpoint: median survival time, dose: 50.0 mg/kg/injection, schedule: Q08DX002 (sc), evaluated on day 7): 117 % of control; T/C (T/C endpoint: median survival time, dose: 50.0 mg/kg/injection, schedule: Q08DX002 (sc), evaluated on day 34): 115 % of control; T/C (T/C endpoint: median survival time, dose: 65.0 mg/kg/injection, schedule: Q01DX001 (sc), evaluated on day 7): 151 % of control; T/C (T/C endpoint: median survival time, dose: 65.0 mg/kg/injection, schedule: Q01DX001 (sc), evaluated on day 35): 155 % of control; survivor count (T/C endpoint: median survival time, dose: 65.0 mg/kg/injection, schedule: Q01DX001 (sc)): 3 of 8; T/C (T/C endpoint: median survival time, dose: 65.0 mg/kg/injection, schedule: Q01DX Z (sc), evaluated on day 34): 275 and 300 % of control; T/C (T/C endpoint: median survival time, dose: 65.0 mg/kg/injection, schedule: Q01DX Z (sc), evaluated on day 36): 195 % of control; T/C (T/C endpoint: median survival time, dose: 65.0 mg/kg/injection, schedule: Q01DX Z (sc), evaluated on day 40): 205 % of control; T/C (T/C endpoint: median survival time, dose: 65.0 mg/kg/injection, schedule: Q01DX Z (sc), evaluated on day 60): 286 % of control; T/C (T/C endpoint: median survival time, dose: 65.0 mg/kg/injection, schedule: Q01DX Z (sc), run until all animals had died): 205, 255, 261 [9 of 10 alive], 272, 300, 305 % of control; survivor count (T/C endpoint: median survival time, dose: 65.0 mg/kg/injection, schedule: Q01HX002 (ip)): 8 of 8; T/C (T/C endpoint: median survival time, dose: 65.0 mg/kg/injection, schedule: Q07DX003 (sc), evaluated on day 6): 186 % of control; T/C (T/C endpoint: median survival time, dose: 65.0 mg/kg/injection, schedule: Q07DX003 (sc), evaluated on day 7): 101, 152, 172, 187 % of control; T/C (T/C endpoint: median survival time, dose: 65.0 mg/kg/injection, schedule: Q07DX003 (sc), evaluated on day 30): 172 and 184 % of control; T/C (T/C endpoint: median survival time, dose: 65.0 mg/kg/injection, schedule: Q07DX003 (sc), evaluated on day 33): 165 % of control; T/C (T/C endpoint: median survival time, dose: 65.0 mg/kg/injection, schedule: Q07DX003 (sc), evaluated on day 35): 155 % of control; survivor count (T/C endpoint: median survival time, dose: 65.0 mg/kg/injection, schedule: Q08DX003 (ip)): 8 of 8; T/C (T/C endpoint: median survival time, dose: 100.0 mg/kg/injection, schedule: Q01DX001 (sc), evaluated on day 7): 98, 150, 168, 172, 173 (3×), 175, 177 % of control; T/C (T/C endpoint: median survival time, dose: 100.0 mg/kg/injection, schedule: Q01DX001 (sc), evaluated on day 9): 161 % of control; T/C (T/C endpoint: median survival time, dose: 100.0 mg/kg/injection, schedule: Q01DX001 (sc), evaluated on day 21): 180 % of control; T/C (T/C endpoint: median survival time, dose: 100.0 mg/kg/injection, schedule: Q01DX001 (sc), evaluated on day 34): 100 % of control; T/C (T/C endpoint: median survival time, dose: 100.0 mg/kg/injection, schedule: Q01DX001 (sc), evaluated on day 36): 177 % of control; T/C (T/C endpoint: median survival time, dose: 100.0 mg/kg/injection, schedule: Q01DX001 (sc), evaluated on day 37): 177 % of control; T/C (T/C endpoint: median survival time, dose: 100.0 mg/kg/injection, schedule: Q01DX001 (sc), evaluated on day 40): 166 % of control; T/C (T/C endpoint: median survival time, dose: 100.0 mg/kg/injection, schedule: Q01DX001 (sc), evaluated on day 43): 173 and 177 % of control; T/C (T/C endpoint: median survival time, dose: 100.0 mg/kg/injection, schedule: Q01DX001 (sc), evaluated on day 60): 160 and 177 % of control; T/C (T/C endpoint: median survival time, dose: 100.0 mg/kg/injection, schedule: Q01DX001 (sc), run until all animals had died): 154 % of control; T/C (T/C endpoint: median survival time, dose: 100.0 mg/kg/injection, schedule: Q08DX002 (sc), evaluated on day 7): 173, 218, 228, 232 % of control; T/C (T/C endpoint: median survival time, dose: 100.0 mg/kg/injection, schedule: Q08DX002 (sc), evaluated on day 21): 170 % of control; T/C (T/C endpoint: median survival time, dose: 100.0 mg/kg/injection, schedule: Q08DX002 (sc), evaluated on day 36): 222 % of control; T/C (T/C endpoint: median survival time, dose: 100.0 mg/kg/injection, schedule: Q08DX002 (sc), evaluated on day 37): 233 % of control; T/C (T/C endpoint: median survival time, dose: 100.0 mg/kg/injection, schedule: Q08DX002 (sc), evaluated on day 43): 233 % of control; T/C (T/C endpoint: median survival time, dose: 100.0 mg/kg/injection, schedule: Q08DX003 (sc), evaluated on day 7): 102, 156, 180, 197 % of control; T/C (T/C endpoint: median survival time, dose: 100.0 mg/kg/injection, schedule: Q08DX003 (sc), evaluated on day 32): 195 % of control; T/C (T/C endpoint: median survival time, dose: 100.0 mg/kg/injection, schedule: Q08DX003 (sc), evaluated on day 34): 100 % of control; T/C (T/C endpoint: median survival time, dose: 100.0 mg/kg/injection, schedule: Q08DX003 (sc), evaluated on day 42): 177 % of control; T/C (T/C endpoint: median survival time, dose: 100.0 mg/kg/injection, schedule: Q08DX003 (sc), evaluated on day 43): 156 % of control [7 of 8 alive]; T/C (T/C endpoint: median survival time, dose: 108.0 mg/kg/injection, schedule: Q01DX001 (sc), evaluated on day 6): 166 % of control; T/C (T/C endpoint: median survival time, dose: 108.0 mg/kg/injection, schedule: Q01DX001 (sc), evaluated on day 7): 160, 169, 172, 179, 180, 186 % of control; T/C (T/C endpoint: median survival time, dose: 108.0 mg/kg/injection, schedule: Q01DX001 (sc), evaluated on day 30): 160, 168, 186 % of control; T/C (T/C endpoint: median survival time, dose: 108.0 mg/kg/injection, schedule: Q01DX001 (sc), evaluated on day 32): 172 and 173 % of control; T/C (T/C endpoint: median survival time, dose: 108.0 mg/kg/injection, schedule: Q01DX001 (sc), evaluated on day 33): 165 and 188 % of control; T/C (T/C endpoint: median survival time, dose: 108.0 mg/kg/injection, schedule: Q01DX001 (sc), evaluated on day 35): 188 % of control; T/C (T/C endpoint: median survival time, dose: 108.0 mg/kg/injection, schedule: Q01DX001 (sc), evaluated on day 36): 166 % of control; T/C (T/C endpoint: median survival time, dose: 108.0 mg/kg/injection, schedule: Q01DX001 (sc), evaluated on day 40): 185 % of control
